Earlier results, collected in patent EP4223883A1, “PROCESS FOR PRODUCING TRYPTAMINES” (Infinit Biosystems, priority 2022, dated 2023).
At least one compound was matched to its structure with a doubt left.

Test system: PSI D, Tryptophan decarboxylase; Aromatic-L-amino acid decarboxylase, Uniprot: P0DPA6 (values from Capsicum annuum)
Conditions: used for PSI D of Psilocybe cubensis, substrate taken from the text, not given

N[C@@H](Cc1c[nH]c2ccccc12)C(=O)O [L-tryptophan]
Km: 729 µM
